42 sequences from PMC7819943, “Rice protein-binding microarrays: a tool to detect cis-acting elements near promoter regions in rice” can be followed below.

The list shows a part of the results.

The target of this test is T1, OsSMF1 (Oryza sativa, UniProt Q6ZLB0 1-436).
T1 sequence: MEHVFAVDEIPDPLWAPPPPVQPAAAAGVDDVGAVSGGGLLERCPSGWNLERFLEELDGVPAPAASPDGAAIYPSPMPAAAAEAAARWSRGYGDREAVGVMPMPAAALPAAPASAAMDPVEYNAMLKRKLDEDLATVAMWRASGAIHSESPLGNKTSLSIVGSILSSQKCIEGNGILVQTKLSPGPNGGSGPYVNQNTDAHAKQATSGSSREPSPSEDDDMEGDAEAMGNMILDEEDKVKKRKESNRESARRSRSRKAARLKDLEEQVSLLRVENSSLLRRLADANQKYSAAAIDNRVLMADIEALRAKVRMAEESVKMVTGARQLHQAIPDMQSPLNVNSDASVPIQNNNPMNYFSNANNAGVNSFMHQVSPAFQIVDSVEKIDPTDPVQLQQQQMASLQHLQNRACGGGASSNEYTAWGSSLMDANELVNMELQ
Kind of test: protein-binding microarray (RPBM); PBS, 2% BSA, 51.3 ng/ul salmon testes DNA, 50 uM zinc acetate, 200 nM TF, 25 C, 1 h; high values mean tight binding. To be noted: protein: recombinant; tags: N-terminal polyhistidine and DsRed monomer fusion (pET32a); chain copies: 2; label: CyDye5-dUTP incorporated in the synthesized complementary strand; 3' TTTTT single-stranded linker to array surface; dsDNA, one strand shown. In a few lines: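 Using Ni–NTA, transcription factors fused N-terminally to polyhistidine and DsRed were purified after expression in E. coli BL21-CodonPlus. These were incubated at 200 nM with a blocked, double-stranded custom Agilent array for 1 h at 25 °C in a buffer containing 50 µM zinc acetate, and the array was washed. The binding signal is per-feature fluorescence intensity (arbitrary units) on an Axon 4000B scanner.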
Regarding “CTCCTCTCCTCCACCTCACCTCACTCCCCACTACTTTCCCCGGAGTCACCTAGTGCAG”, the binding signal is 3820 fluorescence intensity (a.u.). Regarding “GAAAATGATTCATCTGCAAACTACCCTTGACTTGAAATGGCGGAGTCACCTAGTGCAG”, the binding signal is 3480 fluorescence intensity (a.u.). For “TATGTGATAAAGTGATAGATCGAGAAAGTAAGCAGTAGGCCGGAGTCACCTAGTGCAG” the value was 3770 fluorescence intensity (a.u.); for “TAATACCTTGAGTTATGTGTCACATGTCAAAATCCTTGTGCGGAGTCACCTAGTGCAG”, 5060 fluorescence intensity (a.u.). For “ATGCCCCGCTTCTCCTTCCAAGCATATCCTACCACATCGTCGGAGTCACCTAGTGCAG” the value was 3370 fluorescence intensity (a.u.); for “CAGACTTGCGGTGGATGGGGCGGTGGGGAAAGCATAAATGCGGAGTCACCTAGTGCAG”, 3910 fluorescence intensity (a.u.). For “CATCAGATGCGCCCATCGCTTGAAGGAGAGACGCCGAGACCGGAGTCACCTAGTGCAG”, the binding signal was 27300 fluorescence intensity (a.u.). For the sequence “ATCTCTGATGTCTCACCTACACAACGTGGATCACAAGTCGCGGAGTCACCTAGTGCAG”, the binding signal was 3240 fluorescence intensity (a.u.). Turning to “GAGGTGACATGTCATTGTTACATGGTAAAGTGAAGAACAGCGGAGTCACCTAGTGCAG”, the binding signal was 3780 fluorescence intensity (a.u.). With “TATATATATATATATATATATATATATATATATATATATACGGAGTCACCTAGTGCAG” the figure was 3210 ± 33.9 fluorescence intensity (a.u.). With “CGAAGATTAATAAAGTAGGTAAAGTGATGTGGCGAATGGTCGGAGTCACCTAGTGCAG” the figure was 9540 fluorescence intensity (a.u.); with “CCTCTGCAGCAGCGTTTTATTAACAAACATGAAAATCTCCCGGAGTCACCTAGTGCAG”, 23200 fluorescence intensity (a.u.); with “TTATTATTATCTTTCTCAGAAATGAAGCACTCAGAGTTGCCGGAGTCACCTAGTGCAG”, 23000 fluorescence intensity (a.u.). In the case of “TCCTCTTGTATTCAGCTTTTCGTTTACGTGGAAACTCTACCGGAGTCACCTAGTGCAG”, the binding signal is 4690 fluorescence intensity (a.u.). Consider “CATTACTCTGAAAACTATATGTGTGTGTGCATCACATCTCCGGAGTCACCTAGTGCAG”, for which the binding signal is 3660 fluorescence intensity (a.u.). In the case of “ATAAGGACGGAGGGAATACAAAGTTAAAATCCGTCATCTTCGGAGTCACCTAGTGCAG”, the binding signal is 3140 fluorescence intensity (a.u.). Take “GCAATGGCGGTGGCGTTCGCGCCATCGACATGGACGGCGACGGAGTCACCTAGTGCAG”: the binding signal is 3200 fluorescence intensity (a.u.). For “GGTGGCGCTCACCCTCGCGCTGACCGCCATGTGGCCTCCGCGGAGTCACCTAGTGCAG”, the binding signal is 3790 fluorescence intensity (a.u.). With “GGGTGGTGGAAGGACAACGTCAGCTTCGACCGCGCGGGCCCGGAGTCACCTAGTGCAG” the figure was 4390 fluorescence intensity (a.u.); with “CTTCGGTCGGCATGCGCACGTGGGCATCGGCGCTCCGAGTCGGAGTCACCTAGTGCAG”, 3780 fluorescence intensity (a.u.). As for “TGATGCGTTCAATCTAGTTTACATCTGCAATGTCATGATTCGGAGTCACCTAGTGCAG”, the binding signal was 4330 fluorescence intensity (a.u.). For “TTAGCAATGTAGGCGCCACATCAGCTAAAATCATCATCCACGGAGTCACCTAGTGCAG”, the binding signal is 8430 fluorescence intensity (a.u.). For “TTCCTAAGTTCGAAAACTATTTTGTAATAATACACGTAAGCGGAGTCACCTAGTGCAG” the value was 4420 fluorescence intensity (a.u.); for “CTCTCGGCACGCAGCCACGCACGCACGCACGCACGCATGCCGGAGTCACCTAGTGCAG”, 4850 fluorescence intensity (a.u.).

As for “AGGCTCTCTATAAGAGATCCATGTCAGCATATTTTCCTACCGGAGTCACCTAGTGCAG”, the binding signal is 16000 fluorescence intensity (a.u.).

Turning to “TTGTAAATAAAACTTTTATAAACGTGTTCTTAGCGATTTACGGAGTCACCTAGTGCAG”, the binding signal was 3260 fluorescence intensity (a.u.). For “CGATTAGCCCCGCCATGTGGCTGTGTGCGATTCGAGGGTCCGGAGTCACCTAGTGCAG” the value was 7110 fluorescence intensity (a.u.). For “GGGCCTACGTGGGTCCCACGTTGACTCAGCCGTCACGTAGCGGAGTCACCTAGTGCAG”, the binding signal was 11500 fluorescence intensity (a.u.).

Turning to “AATCGTAGCAACCATCACCACCGTGTTGTTCATCGTGCACCGGAGTCACCTAGTGCAG”, the binding signal is 3720 fluorescence intensity (a.u.). For “TCAAAGATGCTCATAGATGCAGGGTTTACGTGTGTGTTCACGGAGTCACCTAGTGCAG” the value was 3620 fluorescence intensity (a.u.). As for “TGTGAATTATGTGGGATGATAATTTAACATACTTGTATTTCGGAGTCACCTAGTGCAG”, the binding signal was 38200 fluorescence intensity (a.u.). Turning to “CCTAACACGGACAGGCCGCACGTAGCTGTAAGGAACCCCGCGGAGTCACCTAGTGCAG”, the binding signal was 4080 fluorescence intensity (a.u.). For the sequence “GTAATGCGCAAGATAGTTGTGCTCATGTCTGACTCCTTTGCGGAGTCACCTAGTGCAG”, the binding signal is 3530 fluorescence intensity (a.u.). Regarding “ACACCTTCACACCATCATCTCTTTGCTTGATTCACCTGGACGGAGTCACCTAGTGCAG”, the binding signal is 3660 fluorescence intensity (a.u.).

As for “CTACAAATCCCTATCCTGTGATGTCCTACGTACCCCATCACGGAGTCACCTAGTGCAG”, the binding signal is 3300 fluorescence intensity (a.u.). With “CATTCTTAATGTAAAATATGAATGTAAATGAAATGTATGCCGGAGTCACCTAGTGCAG” the figure was 3840 fluorescence intensity (a.u.).

Regarding “GCCGCCATCCCACAGCTTTCCTAGGGTTAATCCTCCCGCGCGGAGTCACCTAGTGCAG”, the binding signal is 3450 fluorescence intensity (a.u.).

With “TGCCATCCATGCACGTCATACATATATAGAACTTATACAACGGAGTCACCTAGTGCAG”, the binding signal was 3310 fluorescence intensity (a.u.). For “TCGGTTTCCTCCGCCGCCGCCGCCACCTCCTCCTCCTCCTCGGAGTCACCTAGTGCAG” the value was 3280 fluorescence intensity (a.u.); for “GAGAGAAAAGAAAATAATCTGGCTTTAAACATTACACACACGGAGTCACCTAGTGCAG”, 3420 fluorescence intensity (a.u.); for “TAGCCTTCGCCGTCGCCGCCGCCGCCGCCGCCCTCGCCGTCGGAGTCACCTAGTGCAG”, 3280 fluorescence intensity (a.u.). With “GCCCGAGGCACGTAGAACCACGCCAAGATGCGTGAACCCCCGGAGTCACCTAGTGCAG” the figure was 23000 fluorescence intensity (a.u.).
